Some results were stated once for a whole list of compounds, not compound by compound.
Molecular target: T1, human JAK1 kinase domain (Homo sapiens, UniProt P23458)
T1 construct: made in house; host or cells: SF9 insect cells (baculovirus)
Experiment: JAK1 inhibition assay (Example B), Caliper LabChip peptide phosphorylation
Type: biochemical
Conditions: 1.5 nM JAK1, 25 μM ATP, Morrison tight binding model; read-out: Ki in a JAK1 kinase activity assay (Example B)

Protein sequences, listed by entry. Tags and fused reporters are not part of them. Residues count along the entry.
UniProt P23458, 852-1154: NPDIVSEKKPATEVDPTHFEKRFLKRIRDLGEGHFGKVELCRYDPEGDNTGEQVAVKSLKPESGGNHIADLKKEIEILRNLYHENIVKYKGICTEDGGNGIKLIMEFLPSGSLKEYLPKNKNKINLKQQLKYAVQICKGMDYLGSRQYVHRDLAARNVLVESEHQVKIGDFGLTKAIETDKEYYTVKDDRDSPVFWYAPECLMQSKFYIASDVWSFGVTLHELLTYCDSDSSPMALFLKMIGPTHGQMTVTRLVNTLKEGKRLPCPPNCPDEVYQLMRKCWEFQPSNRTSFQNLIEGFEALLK

Compound	Ki [µM]
C[C@@H](O)c1nc2cnc3[nH]ccc3c2n1C1CC2CCC1C2 (stereo partly drawn) [Example 943, (R)-1-(1-Bicyclo[2.2.1]hept-2-yl-1,6-dihydro-1,3,5,6-tetraaza-as-indacen-2-yl)-ethanol]	< 0.5
CCN1CCCC[C@H]1C(=O)N1CCC(n2cnc3cnc4[nH]ccc4c32)CC1 [Example 949, ((S)-1-Ethyl-piperidin-2-yl)-[4-(6H-1,3,5,6-tetraaza-as-indacen-1-yl)-piperidin-1-yl]-methanone]	< 0.5
CC(C)N1CCCC[C@H]1C(=O)N1CCC(n2cnc3cnc4[nH]ccc4c32)CC1 [Example 950, ((S)-1-Isopropyl-piperidin-2-yl)-[4-(6H-1,3,5,6-tetraaza-as-indacen-1-yl)-piperidin-1-yl]-methanone]	< 0.5
O=C([C@@H]1CCCCN1C1COC1)N1CCC(n2cnc3cnc4[nH]ccc4c32)CC1 [Example 951, ((S)-1-Oxetan-3-yl-piperidin-2-yl)-[4-(6H-1,3,5,6-tetraaza-as-indacen-1-yl)-piperidin-1-yl]-methanone]	< 0.5
COCCN1CCCC[C@H]1C(=O)N1CCC(n2cnc3cnc4[nH]ccc4c32)CC1 [Example 952, [(S)-1-(2-Methoxy-ethyl)-piperidin-2-yl]-[4-(6H-1,3,5,6-tetraaza-as-indacen-1-yl)-piperidin-1-yl]-methanone]	< 0.5
Cn1ncc2c1CC[C@H](n1cnc3cnc4[nH]ccc4c31)C2 [Example 954, 1-((S)-1-Methyl-4,5,6,7-tetrahydro-1H-indazol-5-yl)-1,6-dihydro-1,3,5,6-tetraaza-as-indacene]	< 0.5
Cn1ncc2c1CC[C@@H](n1cnc3cnc4[nH]ccc4c31)C2 [Example 955, 1-((R)-1-Methyl-4,5,6,7-tetrahydro-1H-indazol-5-yl)-1,6-dihydro-1,3,5,6-tetraaza-as-indacene]	< 0.5
CC(C)(O)[C@H]1CC[C@@H](n2cnc3cnc4[nH]ccc4c32)CC1 [Example 957, Cis-2-[4-(6H-1,3,5,6-Tetraaza-as-indacen-1-yl)-cyclohexyl]-propan-2-ol]	< 0.5
N#CCCn1ncc2c1CC[C@H](n1cnc3cnc4[nH]ccc4c31)C2 [Example 959, 3-[(S)-5-(6H-1,3,5,6-Tetraaza-as-indacen-1-yl)-4,5,6,7-tetrahydro-indazol-1-yl]-propionitrile]	< 0.5
N#CCCn1ncc2c1CC[C@@H](n1cnc3cnc4[nH]ccc4c31)C2 [Example 992, 3-[(R)-5-(6H-1,3,5,6-Tetraaza-as-indacen-1-yl)-4,5,6,7-tetrahydro-indazol-1-yl]-propionitrile]	< 0.5
CC1(O)CCC(n2cnc3cnc4[nH]ccc4c32)CC1 (stereo not drawn) [Example 993, Cis-1-Methyl-4-(6H-1,3,5,6-tetraaza-as-indacen-1-yl)-cyclohexanol]	< 0.5
Cc1nc2cnc3[nH]ccc3c2n1C1CCC(C)(O)CC1 (stereo not drawn) [Example 994, Trans-1-Methyl-4-(2-methyl-6H-1,3,5,6-tetraaza-as-indacen-1-yl)-cyclohexanol]	< 0.5
OC1(C2CC2)CCC(n2cnc3cnc4[nH]ccc4c32)CC1 (stereo not drawn) [Example 996, Cis-1-Cyclopropyl-4-(6H-1,3,5,6-tetraaza-as-indacen-1-yl)-cyclohexanol]	< 0.5
C[C@@H](O)c1nc2cnc3[nH]ccc3c2n1C1CCC(n2ccnn2)CC1 (stereo partly drawn) [Example 1003, (R)-1-[1-(4-[1,2,3]Triazol-1-yl-cyclohexyl)-1,6-dihydro-1,3,5,6-tetraaza-as-indacen-2-yl]-ethanol]	< 0.5
C[C@@H](O)c1nc2cnc3[nH]ccc3c2n1[C@H]1CC[C@@H](NCC(F)(F)F)C1 [Example 1004, (R)-1-{1-[(1S,3R)-3-(2,2,2-Trifluoro-ethylamino)-cyclopentyl]-1,6-dihydro-1,3,5,6-tetraaza-as-indacen-2-yl}-ethanol]	< 0.5
C[C@@H](O)c1nc2cnc3[nH]ccc3c2n1[C@H]1CC[C@@H](NCC(F)F)C1 [Example 1005, (R)-1-{1-[(1S,3R)-3-(2,2-Difluoro-ethylamino)-cyclopentyl]-1,6-dihydro-1,3,5,6-tetraaza-as-indacen-2-yl}-ethanol]	< 0.5
N#CCCC1CCC(n2c(C(O)CO)nc3cnc4[nH]ccc4c32)CC1 (stereo not drawn) [Example 1006, 3-{4-[2-(1,2-Dihydroxy-ethyl)-6H-1,3,5,6-tetraaza-as-indacen-1-yl]-cyclohexyl}-propionitrile]	< 0.5
C[C@@H](O)c1nc2cnc3[nH]ccc3c2n1[C@H]1CC[C@H](NCC(F)(F)F)C1 [Example 1008, (R)-1-{1-[(1S,3S)-3-(2,2,2-Trifluoro-ethylamino)-cyclopentyl]-1,6-dihydro-1,3,5,6-tetraaza-as-indacen-2-yl}-ethanol]	< 0.5
C[C@@H](O)c1nc2cnc3[nH]ccc3c2n1C1CCC(NCC(F)(F)F)CC1 (stereo partly drawn) [Example 1009, (R)-1-{1-[4-(2,2,2-Trifluoro-ethylamino)-cyclohexyl]-1,6-dihydro-1,3,5,6-tetraaza-as-indacen-2-yl}-ethanol]	< 0.5
C[C@@H](O)c1nc2cnc3[nH]cc(Br)c3c2n1C1CCC(CC#N)CC1 (stereo partly drawn) [Example 1010, {4-[8-Bromo-2-((R)-1-hydroxy-ethyl)-6H-1,3,5,6-tetraaza-as-indacen-1-yl]-cyclohexyl}-acetonitrile]	< 0.5
C[C@@H](O)c1nc2cnc3[nH]ccc3c2n1[C@H]1COCCC1(F)F [Example 1011, (R)-1-[1-((S)-4,4-Difluoro-tetrahydro-pyran-3-yl)-1,6-dihydro-1,3,5,6-tetraaza-as-indacen-2-yl]-ethanol]	< 0.5
C[C@@H](O)c1nc2cnc3[nH]ccc3c2n1[C@@H]1COCCC1(F)F [Example 1012, (R)-1-[1-((R)-4,4-Difluoro-tetrahydro-pyran-3-yl)-1,6-dihydro-1,3,5,6-tetraaza-as-indacen-2-yl]-ethanol]	< 0.5
COCCN1CC[C@H](n2c([C@@H](C)O)nc3cnc4[nH]ccc4c32)C(F)(F)C1 [Example 1013, (R)-1-{1-[(S)-3,3-Difluoro-1-(2-methoxy-ethyl)-piperidin-4-yl]-1,6-dihydro-1,3,5,6-tetraaza-as-indacen-2-yl}-ethanol]	< 0.5
COCCN1CC[C@@H](n2c([C@@H](C)O)nc3cnc4[nH]ccc4c32)C(F)(F)C1 [Example 1014, (R)-1-{1-[(R)-3,3-Difluoro-1-(2-methoxy-ethyl)-piperidin-4-yl]-1,6-dihydro-1,3,5,6-tetraaza-as-indacen-2-yl}-ethanol]	< 0.5
(R)-1-{1-[1-(3,5-Dimethyl-1H-pyrazol-4-ylmethyl)-piperidin-4-yl]-1,6-dihydro-1,3,5,6-tetraaza-as-indacen-2-yl}-ethanol [Example 904]	< 0.5
N-tert-Butyl-2-[1-(tetrahydro-pyran-3-yl)-1,6-dihydro-1,3,5,6-tetraaza-as-indacen-2-yl]-acetamide [Example 964]	< 0.5
[3-(6H-1,3,5,6-Tetraaza-as-indacen-1-yl)-cyclopentyl]-carbamic acid 2,2,2-trifluoro-ethyl ester [Example 733]	< 0.5
